Measurements reported in PubChem BioAssay AID504791 (Drosophila RNAi Screening Center, 2011).
Purpose: 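Genes of the fly required for silencing by miRNA, siRNA or endo-siRNA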 (primary screen). Cells: Drosophila S2-derived reporter cells. Reagent: long dsRNA against Drosophila genes, about 150-250 ng dsRNA per well (siRNA assay); about 80-120 ng (miRNA assay). Duration: about 5 days (siRNA assay); about 4 days (miRNA assay). Conditions: copper sulfate induction of reporters: 25 µM (siRNA assay); 200 mM stated (miRNA assay), 1-2 days before reading. Measured: 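Dual luciferase assay: Renilla to firefly signal ratio in each well, scaled to the mean ratio of its plate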. Units: stable assay Renilla, run 1 in luminescence; stable assay firefly, run 1 in luminescence. Rule for the call: 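a well was a first-pass pick when its plate-scaled ratio rose above 1.5 (siRNA assay) or 1.6 (miRNA assay), or dropped below 0.6; a gene counted only if two separate dsRNAs agreed on retest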.
In all, the deposit lists about 23,000 reagents; below is an unselected part of those that have a named target and a result. In the full data, 199 (0.86%) are marked active. 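Plate-scaled ratios behind the calls are not deposited; printed light signals are raw; many rows marked increased or decreased are still called inactive.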 Unmarked entries are inactive. The numbers tell different reagents against one gene apart. A plus sign joins genes that one reagent is predicted to hit. No sequences are given here. Not given: the direction of the score.

predicted target	dsRNA no.	miRNA reporter change	stable assay Renilla, run 1	stable assay firefly, run 1
Ser8	1		7230	3.74e5
Rubicon	1		5983	2.41e5
CG12061	1		4959	3.20e5
CG4374	1		6727	3.07e5
Cenp-C (Centromeric protein-C)	1		7246	3.89e5
CG14879	1		6264	3.31e5
ThrRS (Threonyl-tRNA synthetase)	1		9306	3.19e5
Edg78E (Ecdysone-dependent gene 78E)	1		6886	3.96e5
CG6847	1		5576	4.52e5
CG6847	2		5331	5.28e5
AttD (Attacin-D)	1		3868	3.71e5
Burs (Bursicon)	1		8175	3.68e5
alphaTub85E (alpha-Tubulin at 85E)	1		5932	3.37e5
Ir94b (Ionotropic receptor 94b)	1		10090	4.72e5
Ctps (CTP synthase)	1		3703	3.51e5
Ctps (CTP synthase)	2		8485	2.53e5
Ctps (CTP synthase)	3		5151	3.34e5
CG7115	1		6424	4.29e5
ND-MLRQ (NADH dehydrogenase (ubiquinone) MLRQ subunit)	1		4668	3.81e5
CG18581	1	reporter ratio raised past the hit cutoff	7238	3.35e5
RpS3 (Ribosomal protein S3)	1		7739	3.53e5
CG34046 (retired record)	1		6723	3.17e5
CG31220	1		8571	5.65e5
SmydA-8 (SET and MYND domain containing, arthropod-specific, member 8)	1		5912	3.24e5
SmydA-8 (SET and MYND domain containing, arthropod-specific, member 8)	2		9588	5.82e5
SmydA-8 (SET and MYND domain containing, arthropod-specific, member 8)	3		9045	5.75e5
beat-Ia (beaten path Ia)	1		9477	5.68e5
CG31465	1		8943	4.48e5
gol (goliath)	1		26864	1.12e6
Nepl19 (Neprilysin-like 19)	1		3515	3.69e5
CG8531	1		8449	4.56e5
CG33325	1		6594	4.16e5
CG1946	1		6342	3.65e5
Nap1 (Nucleosome assembly protein 1)	1		24003	1.23e6
CG1824	1		4504	4.28e5
Tcs4 (Threonyl-carbamoyl synthesis 4)	1		7587	4.10e5
Polr2B (RNA polymerase II subunit B)	1		5251	2.66e5
mthl1 (methuselah-like 1)	1		5024	4.31e5
CG34129	1		7018	2.95e5
Ccp84Ag	1		7324	5.15e5
Ccp84Ag	2		7955	4.50e5
Syn1 + CG7370	1		4099	3.35e5
Tre1 (Trapped in endoderm 1)	1		4620	2.45e5
CG2767	1		9168	4.65e5
CG12590	1		6880	3.97e5
Lcp2 (Larval cuticle protein 2)	1		7506	4.99e5
CG15356	1		8975	4.89e5
CG9743	1		6307	4.05e5
CG34205	1		6222	3.46e5
CG34205	2		5314	5.91e5
CG2924	1		6219	3.08e5

No new results follow: 10 of the entries above.
predicted target	dsRNA no.	miRNA reporter change	stable assay Renilla, run 1	stable assay firefly, run 1
Cenp-C (Centromeric protein-C)	1		7246	3.89e5
CG14879	1		6264	3.31e5
ThrRS (Threonyl-tRNA synthetase)	1		9306	3.19e5
Edg78E (Ecdysone-dependent gene 78E)	1		6886	3.96e5
CG6847	1		5576	4.52e5
CG6847	2		5331	5.28e5
AttD (Attacin-D)	1		3868	3.71e5
Burs (Bursicon)	1		8175	3.68e5
alphaTub85E (alpha-Tubulin at 85E)	1		5932	3.37e5
Ir94b (Ionotropic receptor 94b)	1		10090	4.72e5

The listing continues:
predicted target	dsRNA no.	miRNA reporter change	stable assay Renilla, run 1	stable assay firefly, run 1
PolD3 (DNA polymerase delta subunit 3)	1		2.03e5	1.15e6
aqz (aaquetzalli)	1		5023	4.69e5
dnc (dunce)	1		5567	2.55e5
dnc (dunce)	2		5292	4.11e5
dnc (dunce)	3		5591	2.84e5
dnc (dunce)	4		5759	2.86e5
dnc (dunce)	5		7347	5.01e5
Cad99C (Cadherin 99C)	1		6907	3.18e5
Cad99C (Cadherin 99C)	2		8374	4.35e5
MFS9 (Major Facilitator Superfamily Transporter 9)	1		7373	2.68e5
tio (tiptop)	1		7487	3.96e5
Papst2 (PAPS transporter 2)	1		8566	2.87e5
NetB (Netrin-B)	1		8275	4.51e5
Ir94g (Ionotropic receptor 94g)	1		6532	2.70e5
CG13947	1		6474	4.76e5
CG13947	2	reporter ratio lowered past the hit cutoff		
CG9106	1		6984	4.48e5
Osi20 (Osiris 20)	1		6538	3.75e5
RhoGEF2 (Rho guanine nucleotide exchange factor 2)	1		8317	2.73e5
RhoGEF2 (Rho guanine nucleotide exchange factor 2)	2	reporter ratio raised past the hit cutoff		
Arl4 (ADP ribosylation factor-like 4)	1		5739	4.22e5
RhoGEF64C (Rho guanine nucleotide exchange factor at 64C)	1		7574	2.99e5
RhoGEF64C (Rho guanine nucleotide exchange factor at 64C)	2		5648	3.32e5
CG34280	1		4967	4.55e5
CG17562	1		7047	4.29e5
Cyp6g2 (Cytochrome P450 6g2)	1		6508	3.28e5
Or45b (Odorant receptor 45b)	1		6838	3.51e5
Jon65Aiv (Jonah 65Aiv)	1		6658	5.42e5
CG13055	1		5672	2.86e5
Tsp (Thrombospondin)	1		12524	5.93e5
Tsp (Thrombospondin)	2		7842	4.28e5
CG14195	1		5070	3.35e5
